The values that follow come from article doi:10.1101/2023.12.20.572533.

No constants are given. Whether binding was seen depends on the method and setting. Some entries that bind do so weakly or less than the wild type. For some of these results: Where a sequence is shown, tags or fusion partners need not be part of it.

Test [1] has as its target T1, GST-tagged MUT-16^1-383 (C. elegans) (UniProt O62011).
T1 sequence: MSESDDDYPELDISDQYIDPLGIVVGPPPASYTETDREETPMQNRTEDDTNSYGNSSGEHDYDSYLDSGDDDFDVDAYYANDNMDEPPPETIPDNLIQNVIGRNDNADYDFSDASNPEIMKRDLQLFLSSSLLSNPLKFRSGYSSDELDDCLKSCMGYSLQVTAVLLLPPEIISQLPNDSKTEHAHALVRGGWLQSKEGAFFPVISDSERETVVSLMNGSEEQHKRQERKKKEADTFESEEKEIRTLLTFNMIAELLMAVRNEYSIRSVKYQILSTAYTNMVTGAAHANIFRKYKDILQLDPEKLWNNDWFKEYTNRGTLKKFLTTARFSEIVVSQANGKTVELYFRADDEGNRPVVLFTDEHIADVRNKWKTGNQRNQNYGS
The test can be described thus: pull-down.

For test [2], the target named is T2, GST-tagged MUT-16^1-584 (C. elegans) (UniProt O62011).
T2 sequence: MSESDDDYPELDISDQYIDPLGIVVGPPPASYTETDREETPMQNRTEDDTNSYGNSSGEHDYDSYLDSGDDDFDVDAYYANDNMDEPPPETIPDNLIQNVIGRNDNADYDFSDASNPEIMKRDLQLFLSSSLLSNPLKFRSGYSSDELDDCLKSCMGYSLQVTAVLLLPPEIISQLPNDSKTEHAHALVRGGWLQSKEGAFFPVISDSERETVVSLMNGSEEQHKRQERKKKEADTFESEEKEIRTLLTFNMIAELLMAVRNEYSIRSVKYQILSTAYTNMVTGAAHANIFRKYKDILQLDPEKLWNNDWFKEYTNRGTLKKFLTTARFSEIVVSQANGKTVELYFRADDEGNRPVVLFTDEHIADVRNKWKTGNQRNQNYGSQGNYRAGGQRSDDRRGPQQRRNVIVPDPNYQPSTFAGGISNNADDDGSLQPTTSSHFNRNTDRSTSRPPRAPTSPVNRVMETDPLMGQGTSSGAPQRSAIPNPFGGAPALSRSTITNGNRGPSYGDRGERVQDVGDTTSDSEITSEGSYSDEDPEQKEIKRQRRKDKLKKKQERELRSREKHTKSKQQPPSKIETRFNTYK
The test can be described thus: pull-down.

Test [3] addresses T3, GST-tagged MUT-16^584-724 (C. elegans) (UniProt O62011).
T3 sequence: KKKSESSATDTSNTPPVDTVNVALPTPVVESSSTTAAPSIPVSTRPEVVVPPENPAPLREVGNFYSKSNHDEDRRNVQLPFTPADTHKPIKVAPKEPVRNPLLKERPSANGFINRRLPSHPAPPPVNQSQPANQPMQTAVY
The test can be described thus: pull-down.

In test [4] the target is T4, MUT-7^CTD (633-910), purified in complex with MUT-8^CTD (C. elegans) (UniProt P34607).
T4 sequence: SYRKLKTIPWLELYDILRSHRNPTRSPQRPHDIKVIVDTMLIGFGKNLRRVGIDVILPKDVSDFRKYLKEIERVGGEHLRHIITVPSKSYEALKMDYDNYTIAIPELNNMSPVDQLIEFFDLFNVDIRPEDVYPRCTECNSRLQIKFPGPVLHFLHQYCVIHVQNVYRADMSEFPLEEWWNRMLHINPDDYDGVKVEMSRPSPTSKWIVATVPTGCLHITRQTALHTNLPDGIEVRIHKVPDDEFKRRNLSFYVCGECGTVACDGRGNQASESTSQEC
The test can be described thus: cross-linking.

The target of test [5] is T4, MUT-7^CTD (633-910), purified in complex with MUT-8^CTD (C. elegans). The test can be described thus: SEC-MALS.
Test [6] has as its target T5, MUT-7^FL(D435A), purified in complex with MUT-8^CTD (C. elegans) (UniProt P34607).
T5 sequence: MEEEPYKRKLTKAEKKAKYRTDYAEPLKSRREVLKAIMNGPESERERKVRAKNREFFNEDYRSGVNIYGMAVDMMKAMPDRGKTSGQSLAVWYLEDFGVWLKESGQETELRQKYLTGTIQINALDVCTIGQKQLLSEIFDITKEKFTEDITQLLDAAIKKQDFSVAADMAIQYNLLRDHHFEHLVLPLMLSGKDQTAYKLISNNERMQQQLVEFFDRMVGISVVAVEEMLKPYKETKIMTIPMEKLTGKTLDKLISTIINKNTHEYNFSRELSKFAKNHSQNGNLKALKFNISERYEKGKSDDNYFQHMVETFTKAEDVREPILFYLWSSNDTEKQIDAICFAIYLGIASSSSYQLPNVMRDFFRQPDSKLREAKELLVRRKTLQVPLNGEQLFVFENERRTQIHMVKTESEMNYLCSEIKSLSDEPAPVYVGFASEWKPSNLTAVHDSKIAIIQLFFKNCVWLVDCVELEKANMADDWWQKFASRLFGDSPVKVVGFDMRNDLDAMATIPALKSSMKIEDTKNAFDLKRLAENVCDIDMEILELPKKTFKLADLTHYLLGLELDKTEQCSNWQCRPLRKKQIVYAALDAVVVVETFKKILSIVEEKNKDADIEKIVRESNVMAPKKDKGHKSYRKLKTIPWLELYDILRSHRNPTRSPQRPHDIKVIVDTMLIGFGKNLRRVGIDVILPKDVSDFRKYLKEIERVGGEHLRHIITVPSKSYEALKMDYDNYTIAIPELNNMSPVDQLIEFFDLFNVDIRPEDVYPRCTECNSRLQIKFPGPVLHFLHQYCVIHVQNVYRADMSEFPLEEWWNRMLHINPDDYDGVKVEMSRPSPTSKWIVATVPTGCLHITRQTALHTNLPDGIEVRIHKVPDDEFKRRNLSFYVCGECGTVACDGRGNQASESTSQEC
The test can be described thus: co-purification.

The target in test [7] is T6, MUT-7^FL, purified (C. elegans) (UniProt P34607).
T6 sequence: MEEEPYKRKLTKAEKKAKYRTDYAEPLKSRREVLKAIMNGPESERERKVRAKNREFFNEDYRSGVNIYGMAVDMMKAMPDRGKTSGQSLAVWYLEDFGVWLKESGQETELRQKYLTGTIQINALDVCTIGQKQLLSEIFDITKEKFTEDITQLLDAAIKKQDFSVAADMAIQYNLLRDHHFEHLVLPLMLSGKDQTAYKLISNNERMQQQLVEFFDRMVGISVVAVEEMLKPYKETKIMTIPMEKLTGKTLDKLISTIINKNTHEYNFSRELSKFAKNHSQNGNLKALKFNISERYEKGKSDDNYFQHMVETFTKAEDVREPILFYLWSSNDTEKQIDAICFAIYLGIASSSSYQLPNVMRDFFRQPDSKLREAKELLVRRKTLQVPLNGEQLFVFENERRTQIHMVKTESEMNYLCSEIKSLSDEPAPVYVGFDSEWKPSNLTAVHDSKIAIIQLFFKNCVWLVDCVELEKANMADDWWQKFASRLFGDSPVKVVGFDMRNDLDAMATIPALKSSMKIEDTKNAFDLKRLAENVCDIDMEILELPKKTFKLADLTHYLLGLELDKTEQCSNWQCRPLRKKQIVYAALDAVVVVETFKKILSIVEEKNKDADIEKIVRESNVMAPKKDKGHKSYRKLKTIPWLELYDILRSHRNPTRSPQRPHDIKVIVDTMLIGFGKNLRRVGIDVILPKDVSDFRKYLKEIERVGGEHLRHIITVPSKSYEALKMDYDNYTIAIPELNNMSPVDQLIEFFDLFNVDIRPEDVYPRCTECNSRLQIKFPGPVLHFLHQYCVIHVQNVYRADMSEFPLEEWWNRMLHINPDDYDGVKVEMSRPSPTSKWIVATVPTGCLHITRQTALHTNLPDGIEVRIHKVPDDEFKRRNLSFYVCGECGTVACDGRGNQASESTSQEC
The test can be described thus: co-purification.

B1: MUT-7^FL/MUT-8^FL complex (complex, UniProt P34607 1-910; Q19672 1-578)
chain 1: MEEEPYKRKLTKAEKKAKYRTDYAEPLKSRREVLKAIMNGPESERERKVRAKNREFFNEDYRSGVNIYGMAVDMMKAMPDRGKTSGQSLAVWYLEDFGVWLKESGQETELRQKYLTGTIQINALDVCTIGQKQLLSEIFDITKEKFTEDITQLLDAAIKKQDFSVAADMAIQYNLLRDHHFEHLVLPLMLSGKDQTAYKLISNNERMQQQLVEFFDRMVGISVVAVEEMLKPYKETKIMTIPMEKLTGKTLDKLISTIINKNTHEYNFSRELSKFAKNHSQNGNLKALKFNISERYEKGKSDDNYFQHMVETFTKAEDVREPILFYLWSSNDTEKQIDAICFAIYLGIASSSSYQLPNVMRDFFRQPDSKLREAKELLVRRKTLQVPLNGEQLFVFENERRTQIHMVKTESEMNYLCSEIKSLSDEPAPVYVGFDSEWKPSNLTAVHDSKIAIIQLFFKNCVWLVDCVELEKANMADDWWQKFASRLFGDSPVKVVGFDMRNDLDAMATIPALKSSMKIEDTKNAFDLKRLAENVCDIDMEILELPKKTFKLADLTHYLLGLELDKTEQCSNWQCRPLRKKQIVYAALDAVVVVETFKKILSIVEEKNKDADIEKIVRESNVMAPKKDKGHKSYRKLKTIPWLELYDILRSHRNPTRSPQRPHDIKVIVDTMLIGFGKNLRRVGIDVILPKDVSDFRKYLKEIERVGGEHLRHIITVPSKSYEALKMDYDNYTIAIPELNNMSPVDQLIEFFDLFNVDIRPEDVYPRCTECNSRLQIKFPGPVLHFLHQYCVIHVQNVYRADMSEFPLEEWWNRMLHINPDDYDGVKVEMSRPSPTSKWIVATVPTGCLHITRQTALHTNLPDGIEVRIHKVPDDEFKRRNLSFYVCGECGTVACDGRGNQASESTSQEC
chain 2: MHNGYHSYFPPNHYYAQSQPSSSYNPQPQIQQPQTQIYGLVVGYNKYGNRNYLFYTKNIDGFVEISGNIQSLQIGRWLKLTVCQNFVGQYVLDSSNSCGYENWDVLPNHRNSSARFFPKYEANDEGEILITARFDVIVDRKNNLYDFTSYDISYDHIIDDFSLIKSSCQHYDGRSFIVEAQASLAGWVALSVHEDPQKLHTCDAVSRNGYQSLPNPVVDSDVQYLHDTRLLDIMTGNGYVQTPETDVQDQQSSQHQEDVHSQMNSQTSDSYNSSRVVSENREIPPETFRSQSIELNQVDSSLSQTTISSRAAPVIDSNQLSDEDEIDDEDTYGTRGTSNIPMRPFIKDLAPTMLQLLRQDKTDSEKPQSALCTVVQKIDGFAILYTAKRDVINVLLQERSCEGLERSPQLGDVAFFDILPRRIETKDRLIFKIPYTHIAVKKKPDTPDSLLKIDCFKNSVRCFGGVLEMKVKIALSKPELVVEQYHDNTEMNSDHHFYYLKATNGVLVTIPKERLLNHLNSKLSADFDLIAWVVHRKPIGNVSLHIGKGGEAYQQFTNGDIRELPPLSSNQYFMNVRK
On to B1, for which the binding entry in test [1] is recorded as “no binding (tested: 5 µM)”; in test [2], “no binding (tested: 5 µM)”; in test [3], “binds”.

B2: MUT-8^CTD (322-578), purified in complex with MUT-7 constructs (domain or fragment, UniProt Q19672 322-578)
chain: DEDEIDDEDTYGTRGTSNIPMRPFIKDLAPTMLQLLRQDKTDSEKPQSALCTVVQKIDGFAILYTAKRDVINVLLQERSCEGLERSPQLGDVAFFDILPRRIETKDRLIFKIPYTHIAVKKKPDTPDSLLKIDCFKNSVRCFGGVLEMKVKIALSKPELVVEQYHDNTEMNSDHHFYYLKATNGVLVTIPKERLLNHLNSKLSADFDLIAWVVHRKPIGNVSLHIGKGGEAYQQFTNGDIRELPPLSSNQYFMNVRK
Regarding B2, the binding result in test [4], in test [5], in test [6] and in test [7] was “binds” in each case.
